± gives the standard deviation. The entries are a selection whose mix differs from that of the whole data set. The uncertainty is large for many entries. Some of the results follow.
Tests used:
[1] = tested on: MILI (PIWIL2) piRISC loaded with L1MC piRNA (26 nt); assay: pre-steady-state target cleavage rate (min^-1); higher = faster piRNA-guided slicing of the target; conditions: guide: L1MC piRNA 5'p-UAACUAAAUACUAUGCAAGCUGUAGG;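 further: 1 nM active piRISC with 0.1 nM target library at 33 °C single turnover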
Outline: (§1)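 A transcribed, DNA-blocked target RNA library […] was incubated at 33 °C for 0–8 or 0–960 min with 1 nM active affinity-purified piRISC carrying one synthetic guide, in HEPES–potassium acetate buffer with or without 500 nM GTSF1 partner protein. Uncleaved targets were then sequenced and normalised to depth and to weakly complementary targets. Data from three trials were pooled, with k3 capped at 0.0001 min^-1, and a burst-and-steady-state fit yielded the pre-steady-state cleavage rate.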

[2] = tested on: EfPiwi piRISC loaded with L1MC piRNA (26 nt); assay: pre-steady-state target cleavage rate (min^-1); guide: L1MC piRNA 5'p-UAACUAAAUACUAUGCAAGCUGUAGG; MIWI and MILI are mouse PIWI proteins and EfPiwi is from a freshwater sponge; tags in brackets are library labels; higher = faster piRNA-guided slicing of the target
Outline: as §1

[3] = auxiliary factor: 500 nM mouse GTSF1
[4] = auxiliary factor: none (no GTSF1)
[5] = auxiliary factor: 500 nM Ephydatia muelleri Gtsf1
[6] = auxiliary factor: none (no Gtsf1)

UCCUCCUAGAGCUUGGAUAGUAUUUAGUUA
pre-steady-state target cleavage rate [1, 3]: 0.217 ± 0.013 | pre-steady-state target cleavage rate [1, 4]: 0.00594 ± 0.0019 | pre-steady-state target cleavage rate [2, 5]: 0.0312 ± 0.0067

UCCUCCUUCAGCUUGCAAAGUAUUUAGUUA
pre-steady-state target cleavage rate [1, 3]: 0.162 ± 0.015 | pre-steady-state target cleavage rate [1, 4]: 0.00632 ± 0.0021 | pre-steady-state target cleavage rate [2, 5]: 0.0828 ± 0.021

UCCUGGUACAGCUUGCAUAGAAUUUAGUUA
pre-steady-state target cleavage rate [1, 3]: 0.229 ± 0.08 | pre-steady-state target cleavage rate [1, 4]: 0.00318 ± 0.0042 | pre-steady-state target cleavage rate [2, 5]: 0.00314 ± 0.0023

UCCUGGAUGUCGAUGCUAUAGUAUUUAGUUA
pre-steady-state target cleavage rate [1, 3]: 0.000952 ± 0.011 | pre-steady-state target cleavage rate [1, 4]: 0.000598 ± 0.0091 | pre-steady-state target cleavage rate [2, 5]: 0.0006 ± 0.0077

UCCUGGAUGUCGUUGCAUUGAAUUUAGUUA
pre-steady-state target cleavage rate [1, 3]: 0.0014 ± 0.0062 | pre-steady-state target cleavage rate [1, 4]: 0.000807 ± 0.0051 | pre-steady-state target cleavage rate [2, 5]: 0.000212 ± 0.015

UCCUCCUACAGGUUGCAUAGUAUUUAGAUA
pre-steady-state target cleavage rate [1, 3]: 0.123 ± 0.017 | pre-steady-state target cleavage rate [1, 4]: 0.0018 ± 0.0031 | pre-steady-state target cleavage rate [2, 5]: 0.00362 ± 0.00095

UCCUGGAUGAUGCUUGCAUAGUAUUUAGUUA
pre-steady-state target cleavage rate [1, 3]: 0.228 ± 0.023 | pre-steady-state target cleavage rate [1, 4]: 0.00923 ± 0.0034 | pre-steady-state target cleavage rate [2, 5]: 0.0738 ± 0.022

UCCUGGUACAGGUAGCAUAGUAUUUAGUUA
pre-steady-state target cleavage rate [1, 3]: 0.21 ± 0.021 | pre-steady-state target cleavage rate [1, 4]: 0.00976 ± 0.0036 | pre-steady-state target cleavage rate [2, 5]: 0.00853 ± 0.0036

UCCUCCUACAGCUUGCAAAGUAUUUUGUUA
pre-steady-state target cleavage rate [1, 3]: 0.0808 ± 0.011 | pre-steady-state target cleavage rate [1, 4]: 0.00215 ± 0.0028 | pre-steady-state target cleavage rate [2, 5]: 0.00453 ± 0.0028

UCCUGGAUGUCCUUGCACAGUAUUUAGUUA
pre-steady-state target cleavage rate [1, 3]: 0.145 ± 0.028 | pre-steady-state target cleavage rate [1, 4]: 0.00389 ± 0.0023 | pre-steady-state target cleavage rate [2, 5]: 0.00454 ± 0.0024

UCCUGCUACAGCUUGCAUAGUAUUUAGUGA
pre-steady-state target cleavage rate [1, 3]: 0.193 ± 0.033 | pre-steady-state target cleavage rate [1, 4]: 0.00299 ± 0.0027 | pre-steady-state target cleavage rate [2, 5]: 0.00567 ± 0.0019

UCCUCGUACAGCUUGCAUAGUAAUUAGUUA
pre-steady-state target cleavage rate [1, 3]: 0.283 ± 0.017 | pre-steady-state target cleavage rate [1, 4]: 0.00698 ± 0.0019 | pre-steady-state target cleavage rate [2, 5]: 0.111 ± 0.033

UCCUGCUAAGCUUGCAUAGUAUUUAGUUA
pre-steady-state target cleavage rate [1, 3]: 0.182 ± 0.018 | pre-steady-state target cleavage rate [1, 4]: 0.00403 ± 0.0019 | pre-steady-state target cleavage rate [2, 5]: 0.00771 ± 0.0024

UCCUGGAACAGCUUGCAAAGUAUUUACAAA
pre-steady-state target cleavage rate [1, 3]: 0.0328 ± 0.01 | pre-steady-state target cleavage rate [1, 4]: 0.000645 ± 0.011 | pre-steady-state target cleavage rate [2, 5]: 0.00187 ± 0.0026

UCCUGGAUGUGGCUUGCAUAGUAUUUAGUUA
pre-steady-state target cleavage rate [1, 3]: 0.163 ± 0.017 | pre-steady-state target cleavage rate [1, 4]: 0.0089 ± 0.0042 | pre-steady-state target cleavage rate [2, 5]: 0.0125 ± 0.0049

UCCUCCUUCAGCUUGCAUAGUAUUUUGUUA
pre-steady-state target cleavage rate [1, 3]: 0.139 ± 0.021 | pre-steady-state target cleavage rate [1, 4]: 0.00287 ± 0.002 | pre-steady-state target cleavage rate [2, 5]: 0.00463 ± 0.0027

UCCUGGAUGAGCUUGUAUAGUAUUUAGUUA
pre-steady-state target cleavage rate [1, 3]: 0.181 ± 0.015 | pre-steady-state target cleavage rate [1, 4]: 0.0088 ± 0.0033 | pre-steady-state target cleavage rate [2, 5]: 0.0538 ± 0.014

UCCUCCUACAGCUUGCAUAGUGUUUAGUUA
pre-steady-state target cleavage rate [1, 3]: 0.211 ± 0.017 | pre-steady-state target cleavage rate [1, 4]: 0.00543 ± 0.0025 | pre-steady-state target cleavage rate [2, 5]: 0.0149 ± 0.0041

UCCUCCUACAGCUUGCAUAGUUAUUUAGUUA
pre-steady-state target cleavage rate [1, 3]: 0.0152 ± 0.0067 | pre-steady-state target cleavage rate [1, 4]: 0.00383 ± 0.0024 | pre-steady-state target cleavage rate [2, 5]: 0.00556 ± 0.0031

UCCUGGAUCAGCUAGCAAAGUAUUUAGUUA
pre-steady-state target cleavage rate [1, 3]: 0.0976 ± 0.012 | pre-steady-state target cleavage rate [1, 4]: 0.00566 ± 0.0019 | pre-steady-state target cleavage rate [2, 5]: 0.00308 ± 0.0029

UCCUGGUACAGCUUGCAUAGUAUUUAGUUA [g2:g24:cont:t1A]
pre-steady-state target cleavage rate [1, 3]: 0.277 ± 0.018 | pre-steady-state target cleavage rate [1, 4]: 0.0215 ± 0.0056 | pre-steady-state target cleavage rate [2, 5]: 0.0865 ± 0.024

UCCUGGAUGUCGAUGCAUAGUAUUUUCAUA
pre-steady-state target cleavage rate [1, 3]: 0.00311 ± 0.0056 | pre-steady-state target cleavage rate [1, 4]: 0.000256 ± 0.021 | pre-steady-state target cleavage rate [2, 5]: 0.000606 ± 0.008

UCCUGGUACAGGUUGCAUAGUAAUUAGUUA
pre-steady-state target cleavage rate [1, 3]: 0.325 ± 0.041 | pre-steady-state target cleavage rate [1, 4]: 0.00664 ± 0.0029 | pre-steady-state target cleavage rate [2, 5]: 0.0027 ± 0.004

UCCUCCUUGUGCUUGCAUAGUAUUUAGUUA
pre-steady-state target cleavage rate [1, 3]: 0.157 ± 0.012 | pre-steady-state target cleavage rate [1, 4]: 0.00963 ± 0.002 | pre-steady-state target cleavage rate [2, 5]: 0.0113 ± 0.0034

UCCUGCUACAGCUUGCAUAGAAUUUACUUA
pre-steady-state target cleavage rate [1, 3]: 0.107 ± 0.031 | pre-steady-state target cleavage rate [1, 4]: 0.00114 ± 0.0048 | pre-steady-state target cleavage rate [2, 5]: 0.00189 ± 0.0031

UCCUCCUACAGCCUUGCAUAGUAUUUAGUUA
pre-steady-state target cleavage rate [1, 3]: 0.262 ± 0.019 | pre-steady-state target cleavage rate [1, 4]: 0.0101 ± 0.0026 | pre-steady-state target cleavage rate [2, 5]: 0.0222 ± 0.0079

UCCUGGAUGAGCUUACAUAGUAUUUAGUUA
pre-steady-state target cleavage rate [1, 3]: 0.153 ± 0.019 | pre-steady-state target cleavage rate [1, 4]: 0.00591 ± 0.0023 | pre-steady-state target cleavage rate [2, 5]: 0.00581 ± 0.0024

UCCUGCUACAGCUUGCAUAGCAUUUAGUUA
pre-steady-state target cleavage rate [1, 3]: 0.141 ± 0.022 | pre-steady-state target cleavage rate [1, 4]: 0.00237 ± 0.0028 | pre-steady-state target cleavage rate [2, 6]: 0.000658 ± 0.0073

UCCUCGUACUGCUUGCAUAGUAUUUAGUUA
pre-steady-state target cleavage rate [1, 3]: 0.264 ± 0.0097 | pre-steady-state target cleavage rate [1, 4]: 0.00745 ± 0.0024 | pre-steady-state target cleavage rate [2, 5]: 0.0721 ± 0.018

UCCUGGAUGUGCUUGGAUAGUUUUUAGUUA
pre-steady-state target cleavage rate [1, 3]: 0.00761 ± 0.0046 | pre-steady-state target cleavage rate [1, 4]: 0.00414 ± 0.0024 | pre-steady-state target cleavage rate [2, 5]: 0.000358 ± 0.014

UCCUGGAACAGCUAGCAUAGUAAUUAGUUA
pre-steady-state target cleavage rate [1, 3]: 0.155 ± 0.018 | pre-steady-state target cleavage rate [1, 4]: 0.00801 ± 0.0026 | pre-steady-state target cleavage rate [2, 6]: 0.0005 ± 0.014

UCCUGGUACAGCUUGCAAAGUAUUUACAAA
pre-steady-state target cleavage rate [1, 3]: 0.0115 ± 0.0055 | pre-steady-state target cleavage rate [1, 4]: 0.0009 ± 0.0078 | pre-steady-state target cleavage rate [2, 5]: 0.00196 ± 0.0029

UCCUGGAUCAGCUUGCAUACUAUUUAGAAA
pre-steady-state target cleavage rate [1, 3]: 0.0141 ± 0.0069 | pre-steady-state target cleavage rate [1, 4]: 0.000758 ± 0.0067 | pre-steady-state target cleavage rate [2, 5]: 0.00139 ± 0.0041

UCCUCCUACAGCUUCAUAGUAUUUAGUUA
pre-steady-state target cleavage rate [1, 3]: 0.238 ± 0.013 | pre-steady-state target cleavage rate [1, 4]: 0.0049 ± 0.002 | pre-steady-state target cleavage rate [2, 5]: 0.0399 ± 0.015

UCCUCCUUGAGCUUGCAUAGUAUUUAGUUA
pre-steady-state target cleavage rate [1, 3]: 0.216 ± 0.018 | pre-steady-state target cleavage rate [1, 4]: 0.0051 ± 0.0021 | pre-steady-state target cleavage rate [2, 5]: 0.0223 ± 0.0062

UCCUCCUUCAGCUUGCAUAGUAAUUAGUUA
pre-steady-state target cleavage rate [1, 3]: 0.211 ± 0.021 | pre-steady-state target cleavage rate [1, 4]: 0.00503 ± 0.002 | pre-steady-state target cleavage rate [2, 5]: 0.0731 ± 0.025

UCCUGGAUCAGCUUGCAUAGUAAAUAGUUA
pre-steady-state target cleavage rate [1, 3]: 0.171 ± 0.024 | pre-steady-state target cleavage rate [1, 4]: 0.00496 ± 0.0026 | pre-steady-state target cleavage rate [2, 6]: 0.0029 ± 0.0047

UCCUCCUACAGCUUGCAUAGUAGUUUAGUUA
pre-steady-state target cleavage rate [1, 3]: 0.23 ± 0.022 | pre-steady-state target cleavage rate [1, 4]: 0.007 ± 0.0022 | pre-steady-state target cleavage rate [2, 5]: 0.0131 ± 0.0052

UCCUCCUAGACCUUGCAUAGUAUUUAGUUA
pre-steady-state target cleavage rate [1, 3]: 0.237 ± 0.024 | pre-steady-state target cleavage rate [1, 4]: 0.00751 ± 0.0025 | pre-steady-state target cleavage rate [2, 5]: 0.141 ± 0.041

UCCUGGAUCAGCUUGCAUAGUAUUUUCAUA
pre-steady-state target cleavage rate [1, 3]: 0.0451 ± 0.011 | pre-steady-state target cleavage rate [1, 4]: 0.00167 ± 0.003 | pre-steady-state target cleavage rate [2, 6]: 0.000312 ± 0.023

UCCUGGAACAGCUUGCAUAGUAUUUAGUGUA
pre-steady-state target cleavage rate [1, 3]: 0.231 ± 0.018 | pre-steady-state target cleavage rate [1, 4]: 0.00523 ± 0.0026 | pre-steady-state target cleavage rate [2, 5]: 0.00557 ± 0.0021

UCCUCCUACAGCUAGCUUAGUAUUUAGUUA
pre-steady-state target cleavage rate [1, 3]: 0.206 ± 0.017 | pre-steady-state target cleavage rate [1, 4]: 0.00491 ± 0.0019 | pre-steady-state target cleavage rate [2, 5]: 0.00997 ± 0.0038

UCCUGGAUCAGCUUGGAUAGUAUUAAGUUA
pre-steady-state target cleavage rate [1, 3]: 0.162 ± 0.027 | pre-steady-state target cleavage rate [1, 4]: 0.00386 ± 0.0022 | pre-steady-state target cleavage rate [2, 5]: 0.00195 ± 0.0026

UCCUGGAUGAGCUAGCAUAGUAUUUUGUUA
pre-steady-state target cleavage rate [1, 3]: 0.159 ± 0.036 | pre-steady-state target cleavage rate [1, 4]: 0.00273 ± 0.0031 | pre-steady-state target cleavage rate [2, 5]: 0.00327 ± 0.003

UCCUACUACAGCUUGCAUAGUAUUUAGUUA
pre-steady-state target cleavage rate [1, 3]: 0.294 ± 0.02 | pre-steady-state target cleavage rate [1, 4]: 0.00883 ± 0.0027 | pre-steady-state target cleavage rate [2, 5]: 0.0579 ± 0.018

UCCUCCUAGAGGUUGCAUAGUAUUUAGUUA
pre-steady-state target cleavage rate [1, 3]: 0.205 ± 0.011 | pre-steady-state target cleavage rate [1, 4]: 0.00716 ± 0.0022 | pre-steady-state target cleavage rate [2, 5]: 0.0153 ± 0.0029

UCCUGGAUGUGCUUGCAUAGUAUUUCGUUA
pre-steady-state target cleavage rate [1, 3]: 0.0261 ± 0.0098 | pre-steady-state target cleavage rate [1, 4]: 0.00115 ± 0.0065 | pre-steady-state target cleavage rate [2, 5]: 0.00179 ± 0.0018

Source: the supplement of paper PMC10338343
